# Data from the supplement of paper PMC6411743.
# The chains behind the UniProt entries cited, without tags or fusion partners. Where a name states a change or a piece, a line headed by the entry shows the natural chain unless it says otherwise.
# UniProt Q96J01: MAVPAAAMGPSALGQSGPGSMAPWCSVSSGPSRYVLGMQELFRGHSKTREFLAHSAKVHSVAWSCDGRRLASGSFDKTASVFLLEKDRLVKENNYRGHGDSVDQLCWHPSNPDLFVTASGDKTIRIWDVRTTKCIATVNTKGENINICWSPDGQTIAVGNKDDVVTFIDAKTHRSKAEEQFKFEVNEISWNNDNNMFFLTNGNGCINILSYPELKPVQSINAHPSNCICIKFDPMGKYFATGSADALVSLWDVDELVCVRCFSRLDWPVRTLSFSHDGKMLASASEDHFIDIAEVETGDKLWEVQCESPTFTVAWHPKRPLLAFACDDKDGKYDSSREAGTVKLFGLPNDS
# UniProt Q96CS2: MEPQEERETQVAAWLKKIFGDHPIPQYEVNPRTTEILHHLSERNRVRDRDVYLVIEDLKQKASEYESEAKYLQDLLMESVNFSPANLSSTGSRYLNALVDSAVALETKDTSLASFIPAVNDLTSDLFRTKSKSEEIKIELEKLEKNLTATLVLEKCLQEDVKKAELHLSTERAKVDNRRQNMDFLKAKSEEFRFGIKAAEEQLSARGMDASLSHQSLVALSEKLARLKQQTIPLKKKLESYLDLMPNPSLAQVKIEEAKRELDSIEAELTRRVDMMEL
# UniProt Q969T7: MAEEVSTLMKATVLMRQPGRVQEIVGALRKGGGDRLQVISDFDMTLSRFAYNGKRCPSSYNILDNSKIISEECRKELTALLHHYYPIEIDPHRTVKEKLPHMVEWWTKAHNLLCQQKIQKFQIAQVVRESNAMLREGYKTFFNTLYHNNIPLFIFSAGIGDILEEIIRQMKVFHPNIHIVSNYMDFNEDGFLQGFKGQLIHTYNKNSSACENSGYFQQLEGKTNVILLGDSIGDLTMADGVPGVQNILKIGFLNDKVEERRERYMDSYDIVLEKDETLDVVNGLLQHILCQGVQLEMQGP
# UniProt Q96BM9: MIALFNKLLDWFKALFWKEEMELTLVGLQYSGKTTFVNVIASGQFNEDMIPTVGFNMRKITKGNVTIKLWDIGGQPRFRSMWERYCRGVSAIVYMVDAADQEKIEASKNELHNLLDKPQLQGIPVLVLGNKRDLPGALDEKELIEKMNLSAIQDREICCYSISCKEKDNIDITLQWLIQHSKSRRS
# UniProt Q96HW7, whole entry: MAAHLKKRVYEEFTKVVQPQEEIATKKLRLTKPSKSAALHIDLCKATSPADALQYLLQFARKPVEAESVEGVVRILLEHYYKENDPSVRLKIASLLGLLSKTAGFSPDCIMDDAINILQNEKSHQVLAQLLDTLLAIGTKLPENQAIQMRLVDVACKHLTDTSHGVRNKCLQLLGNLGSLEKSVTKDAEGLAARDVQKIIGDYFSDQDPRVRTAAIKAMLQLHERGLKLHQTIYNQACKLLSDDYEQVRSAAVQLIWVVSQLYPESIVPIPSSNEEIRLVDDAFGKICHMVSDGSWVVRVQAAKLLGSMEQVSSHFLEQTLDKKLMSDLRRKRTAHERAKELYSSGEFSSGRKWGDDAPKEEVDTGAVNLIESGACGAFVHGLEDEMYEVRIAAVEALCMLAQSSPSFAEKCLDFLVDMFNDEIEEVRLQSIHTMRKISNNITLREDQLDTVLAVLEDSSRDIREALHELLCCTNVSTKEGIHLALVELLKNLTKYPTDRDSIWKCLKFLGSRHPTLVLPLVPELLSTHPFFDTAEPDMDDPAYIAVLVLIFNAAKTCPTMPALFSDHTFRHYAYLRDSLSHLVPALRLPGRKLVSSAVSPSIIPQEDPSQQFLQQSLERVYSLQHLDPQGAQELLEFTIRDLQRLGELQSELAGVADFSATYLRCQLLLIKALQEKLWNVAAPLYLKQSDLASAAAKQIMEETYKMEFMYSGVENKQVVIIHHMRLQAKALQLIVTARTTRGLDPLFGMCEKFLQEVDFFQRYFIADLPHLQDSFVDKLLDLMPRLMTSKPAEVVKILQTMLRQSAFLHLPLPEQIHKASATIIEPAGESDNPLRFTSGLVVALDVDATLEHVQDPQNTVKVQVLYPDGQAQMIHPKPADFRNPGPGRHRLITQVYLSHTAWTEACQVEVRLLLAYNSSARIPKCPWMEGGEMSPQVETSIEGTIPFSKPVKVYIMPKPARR
# UniProt Q96AQ8: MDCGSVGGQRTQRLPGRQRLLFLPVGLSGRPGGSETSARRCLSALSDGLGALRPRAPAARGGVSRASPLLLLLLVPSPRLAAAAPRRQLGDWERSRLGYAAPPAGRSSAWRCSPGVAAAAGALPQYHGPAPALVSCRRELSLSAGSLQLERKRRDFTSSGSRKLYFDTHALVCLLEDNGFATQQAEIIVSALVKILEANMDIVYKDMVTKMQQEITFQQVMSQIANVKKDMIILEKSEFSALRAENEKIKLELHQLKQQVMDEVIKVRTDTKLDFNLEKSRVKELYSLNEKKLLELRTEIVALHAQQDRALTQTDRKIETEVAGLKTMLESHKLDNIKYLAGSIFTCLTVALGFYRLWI
# UniProt Q93074, whole entry: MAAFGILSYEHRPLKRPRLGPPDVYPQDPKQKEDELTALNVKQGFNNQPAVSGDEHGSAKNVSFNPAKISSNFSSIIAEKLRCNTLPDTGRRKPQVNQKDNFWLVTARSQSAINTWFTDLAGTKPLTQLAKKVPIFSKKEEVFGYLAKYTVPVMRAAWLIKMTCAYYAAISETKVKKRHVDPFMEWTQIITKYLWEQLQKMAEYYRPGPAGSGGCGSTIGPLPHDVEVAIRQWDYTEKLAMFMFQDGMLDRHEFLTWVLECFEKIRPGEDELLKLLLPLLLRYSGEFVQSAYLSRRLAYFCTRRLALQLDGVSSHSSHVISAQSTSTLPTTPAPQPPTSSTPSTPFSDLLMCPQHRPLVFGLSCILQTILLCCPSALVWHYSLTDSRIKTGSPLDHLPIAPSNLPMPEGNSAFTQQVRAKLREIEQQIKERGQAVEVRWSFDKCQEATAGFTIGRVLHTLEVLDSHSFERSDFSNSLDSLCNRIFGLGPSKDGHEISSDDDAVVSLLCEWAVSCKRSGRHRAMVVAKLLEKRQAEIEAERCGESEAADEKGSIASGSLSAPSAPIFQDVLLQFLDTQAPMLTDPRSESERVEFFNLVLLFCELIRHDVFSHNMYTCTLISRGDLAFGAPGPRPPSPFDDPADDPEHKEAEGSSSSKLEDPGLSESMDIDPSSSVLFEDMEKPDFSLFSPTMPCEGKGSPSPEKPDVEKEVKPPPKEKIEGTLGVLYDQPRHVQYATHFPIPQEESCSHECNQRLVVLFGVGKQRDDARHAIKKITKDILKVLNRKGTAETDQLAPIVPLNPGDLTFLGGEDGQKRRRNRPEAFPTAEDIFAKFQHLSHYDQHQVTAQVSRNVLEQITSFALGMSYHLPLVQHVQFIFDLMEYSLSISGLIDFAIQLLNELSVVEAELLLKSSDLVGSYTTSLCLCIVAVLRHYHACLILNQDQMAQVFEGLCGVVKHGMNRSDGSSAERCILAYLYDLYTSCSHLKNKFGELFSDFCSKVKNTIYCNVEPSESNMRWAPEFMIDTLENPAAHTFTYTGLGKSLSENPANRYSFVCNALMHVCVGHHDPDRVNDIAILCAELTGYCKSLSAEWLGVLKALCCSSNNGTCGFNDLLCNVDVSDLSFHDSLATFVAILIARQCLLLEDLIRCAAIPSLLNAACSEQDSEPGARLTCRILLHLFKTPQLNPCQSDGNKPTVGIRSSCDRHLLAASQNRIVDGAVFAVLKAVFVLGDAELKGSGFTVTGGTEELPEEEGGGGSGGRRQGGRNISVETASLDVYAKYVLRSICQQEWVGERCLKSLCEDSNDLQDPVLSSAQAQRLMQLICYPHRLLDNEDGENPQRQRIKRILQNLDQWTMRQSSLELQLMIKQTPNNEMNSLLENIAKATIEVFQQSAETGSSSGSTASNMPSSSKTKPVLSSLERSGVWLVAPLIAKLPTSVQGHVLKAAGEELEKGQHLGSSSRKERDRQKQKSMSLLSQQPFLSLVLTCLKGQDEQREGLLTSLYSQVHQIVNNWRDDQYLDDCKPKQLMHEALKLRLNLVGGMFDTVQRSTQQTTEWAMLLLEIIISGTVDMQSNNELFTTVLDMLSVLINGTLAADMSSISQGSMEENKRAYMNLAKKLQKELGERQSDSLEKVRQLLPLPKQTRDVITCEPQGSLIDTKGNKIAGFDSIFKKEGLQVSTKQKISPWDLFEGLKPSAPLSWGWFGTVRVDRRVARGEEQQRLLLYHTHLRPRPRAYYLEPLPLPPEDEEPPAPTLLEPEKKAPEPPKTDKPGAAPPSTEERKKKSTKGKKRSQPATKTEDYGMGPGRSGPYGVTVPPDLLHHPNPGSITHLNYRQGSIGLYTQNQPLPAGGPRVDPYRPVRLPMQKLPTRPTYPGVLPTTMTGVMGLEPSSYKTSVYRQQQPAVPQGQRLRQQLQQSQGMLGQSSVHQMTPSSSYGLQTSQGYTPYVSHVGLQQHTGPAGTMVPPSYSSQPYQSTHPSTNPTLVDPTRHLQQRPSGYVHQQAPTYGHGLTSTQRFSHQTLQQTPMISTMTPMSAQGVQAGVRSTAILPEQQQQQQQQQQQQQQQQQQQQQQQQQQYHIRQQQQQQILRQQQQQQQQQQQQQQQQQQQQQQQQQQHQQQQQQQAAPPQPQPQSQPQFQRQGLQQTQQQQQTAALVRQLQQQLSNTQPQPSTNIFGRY
# UniProt Q96EY8: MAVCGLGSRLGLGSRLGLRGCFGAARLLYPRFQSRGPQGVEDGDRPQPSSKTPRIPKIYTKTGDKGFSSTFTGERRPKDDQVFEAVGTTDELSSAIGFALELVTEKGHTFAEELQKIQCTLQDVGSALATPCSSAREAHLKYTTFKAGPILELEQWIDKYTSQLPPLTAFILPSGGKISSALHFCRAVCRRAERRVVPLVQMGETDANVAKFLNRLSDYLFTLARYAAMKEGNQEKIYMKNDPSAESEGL
# UniProt Q96PU8: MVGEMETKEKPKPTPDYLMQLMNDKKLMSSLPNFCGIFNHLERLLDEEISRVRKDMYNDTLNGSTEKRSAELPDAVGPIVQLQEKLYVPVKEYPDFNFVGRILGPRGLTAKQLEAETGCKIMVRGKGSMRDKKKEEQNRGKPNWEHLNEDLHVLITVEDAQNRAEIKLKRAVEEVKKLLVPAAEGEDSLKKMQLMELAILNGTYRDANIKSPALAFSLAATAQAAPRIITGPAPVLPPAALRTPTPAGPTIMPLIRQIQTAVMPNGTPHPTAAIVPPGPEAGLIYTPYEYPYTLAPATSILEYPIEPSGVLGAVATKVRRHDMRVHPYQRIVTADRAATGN
# UniProt Q93034, whole entry: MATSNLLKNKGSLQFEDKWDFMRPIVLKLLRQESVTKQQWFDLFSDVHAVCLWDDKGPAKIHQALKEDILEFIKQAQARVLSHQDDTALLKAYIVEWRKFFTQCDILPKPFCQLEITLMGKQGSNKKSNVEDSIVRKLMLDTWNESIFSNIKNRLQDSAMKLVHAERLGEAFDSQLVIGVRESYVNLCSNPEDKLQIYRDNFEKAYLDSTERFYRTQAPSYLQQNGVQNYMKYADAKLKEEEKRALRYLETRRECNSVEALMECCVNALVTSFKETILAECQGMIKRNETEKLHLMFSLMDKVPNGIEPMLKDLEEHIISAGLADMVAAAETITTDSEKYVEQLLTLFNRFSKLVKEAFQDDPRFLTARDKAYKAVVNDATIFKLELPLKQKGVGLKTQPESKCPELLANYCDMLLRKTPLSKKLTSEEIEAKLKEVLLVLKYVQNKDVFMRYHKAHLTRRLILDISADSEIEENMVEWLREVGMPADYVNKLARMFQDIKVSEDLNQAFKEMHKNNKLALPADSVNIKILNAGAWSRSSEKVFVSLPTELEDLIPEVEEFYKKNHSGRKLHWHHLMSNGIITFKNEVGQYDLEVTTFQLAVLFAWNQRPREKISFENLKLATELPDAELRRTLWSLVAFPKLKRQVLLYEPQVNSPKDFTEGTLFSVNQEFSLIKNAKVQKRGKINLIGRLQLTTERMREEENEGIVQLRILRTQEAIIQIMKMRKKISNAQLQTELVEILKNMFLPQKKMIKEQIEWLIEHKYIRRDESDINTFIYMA
# UniProt Q96MW5: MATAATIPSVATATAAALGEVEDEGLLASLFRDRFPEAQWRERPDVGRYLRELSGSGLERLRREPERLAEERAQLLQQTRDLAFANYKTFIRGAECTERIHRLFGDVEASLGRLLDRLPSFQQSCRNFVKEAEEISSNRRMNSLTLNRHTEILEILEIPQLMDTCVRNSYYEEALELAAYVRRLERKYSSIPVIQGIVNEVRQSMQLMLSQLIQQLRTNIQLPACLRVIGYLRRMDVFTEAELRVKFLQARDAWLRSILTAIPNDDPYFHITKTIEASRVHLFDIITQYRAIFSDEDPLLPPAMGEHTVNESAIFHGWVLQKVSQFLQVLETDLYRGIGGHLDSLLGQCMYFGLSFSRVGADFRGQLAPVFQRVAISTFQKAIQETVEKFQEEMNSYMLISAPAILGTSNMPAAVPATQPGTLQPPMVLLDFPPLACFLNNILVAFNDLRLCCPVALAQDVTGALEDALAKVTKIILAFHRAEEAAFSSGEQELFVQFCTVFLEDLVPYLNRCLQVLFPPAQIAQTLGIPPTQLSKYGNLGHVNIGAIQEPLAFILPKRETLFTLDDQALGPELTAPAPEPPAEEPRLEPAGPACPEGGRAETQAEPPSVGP
# ± gives the standard deviation of the averaged measurements. The list shows a part of the results, in another mix than the full data. Most values lie at the level of the controls, where differences are scatter.
# Compound: Nc1ncnc2c1ncn2[C@@H]1O[C@H](COP(=O)(O)OP(=O)(O)NP(=O)(O)O)[C@@H](O)[C@H]1O [adenylyl imidodiphosphate]
# Assay: NP40-soluble protein abundance relative to vehicle (solubility fold change) (ratio); higher = more soluble protein in presence of AMP-PNP
# Settings: concentration: 0.1mM
# Procedure, shortened: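 Data come from three independent experiments in which Dounce-homogenised Jurkat crude lysate was treated at eight concentrations from 0.1 to 10 mM. Treatment ran 10 min at room temperature and then 3 min at 37 °C, after which 0.8% NP40 and benzonase were added for 60 min at 4 °C before ultracentrifugation. The supernatant underwent TMT labelling and LC-MS/MS, and vsn-normalised intensities were expressed as fold change against the detergent-processed vehicle in each replicate.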
row,Target,NP40-soluble protein abundance
1,THOC3 (UniProt Q96J01),1.06 ± 0.013
2,UniProt Q96CS2,0.99 ± 0.086
3,UniProt Q96ER3 and related entries,0.9746 ± 0.0076
4,ITFG2 (UniProt Q969R8),0.991 ± 0.025
5,UniProt Q969T7 and related entries,0.984 ± 0.038
6,ARL8A (UniProt Q96BM9),0.982 ± 0.039
7,ZC3H10 (UniProt Q96K80),0.9652 ± 0.0011
8,PTCD3 (UniProt Q96EY7),1.06 ± 0.036
9,UniProt Q96D71 and related entries,1 ± 0.038
10,INTS4 (UniProt Q96HW7),1.02 ± 0.025
11,UniProt Q96PV6-2,0.974 ± 0.013
12,UniProt Q96AQ8,0.981 ± 0.046
13,UniProt Q93074-2,1.02 ± 0.014
14,DNAJA3 (UniProt Q96EY1),1 ± 0.045
15,ZNF830 (UniProt Q96NB3),1.02 ± 0.018
16,MMAB (UniProt Q96EY8),0.974 ± 0.025
17,LRRC45 (UniProt Q96CN5),0.982 ± 0.029
18,UniProt Q96BX8,1.03 ± 0.047
19,UniProt Q96AP4 and related entries,1 ± 0.017

row,Target,NP40-soluble protein abundance
1,UniProt Q96PU8 and related entries,0.989 ± 0.067
2,L3MBTL2 (UniProt Q969R5),1 ± 0.02
3,ISL2 (UniProt Q96A47),0.988 ± 0.019
4,DCPS (UniProt Q96C86),0.977 ± 0.022
5,SIPA1 (UniProt Q96FS4),0.994 ± 0.018
6,Sirt1 (UniProt Q96EB6),0.972 ± 0.014
7,UniProt Q96G28 and related entries,0.984 ± 0.036
8,UniProt Q96ES7,0.966 ± 0.05
9,UniProt Q96P11 and related entries,1.01 ± 0.018
10,GCC1 (UniProt Q96CN9),0.993 ± 0.031
11,UniProt Q96BD5 and related entries,0.982 ± 0.075
12,PAWR (UniProt Q96IZ0),0.976 ± 0.019
13,ZC3HAV1L (UniProt Q96H79),1.01 ± 0.029
14,CUL5 (UniProt Q93034),1.02 ± 0.034
15,UniProt Q96BN8,1.013 ± 0.0076
16,UniProt Q96JC1 and related entries,1.03 ± 0.017
17,UniProt Q969N2 and related entries,0.991 ± 0.027
18,COG8 (UniProt Q96MW5),1 ± 0.019

# Same assay, conditions: concentration: 0.5mM
row,Target,NP40-soluble protein abundance
1,THOC3 (UniProt Q96J01),1.05 ± 0.072
2,UniProt Q96CS2,0.98 ± 0.086
3,UniProt Q96ER3 and related entries,0.99 ± 0.011
4,ITFG2 (UniProt Q969R8),0.988 ± 0.034
5,UniProt Q969T7 and related entries,0.949 ± 0.058
6,ARL8A (UniProt Q96BM9),0.993 ± 0.022
7,ZC3H10 (UniProt Q96K80),0.993 ± 0.057
8,PTCD3 (UniProt Q96EY7),0.999 ± 0.057
9,UniProt Q96D71 and related entries,0.9925 ± 0.0056
10,INTS4 (UniProt Q96HW7),0.992 ± 0.085
11,UniProt Q96PV6-2,0.981 ± 0.011
12,UniProt Q96AQ8,0.987 ± 0.03
13,UniProt Q93074-2,0.99 ± 0.046
14,DNAJA3 (UniProt Q96EY1),0.99 ± 0.058
15,ZNF830 (UniProt Q96NB3),1.03 ± 0.068
16,MMAB (UniProt Q96EY8),0.973 ± 0.044
17,LRRC45 (UniProt Q96CN5),0.976 ± 0.079
18,UniProt Q96BX8,0.994 ± 0.021
19,UniProt Q96AP4 and related entries,0.992 ± 0.036

row,Target,NP40-soluble protein abundance
1,UniProt Q96PU8 and related entries,0.957 ± 0.062
2,L3MBTL2 (UniProt Q969R5),0.984 ± 0.045
3,ISL2 (UniProt Q96A47),0.998 ± 0.036
4,DCPS (UniProt Q96C86),0.966 ± 0.024
5,SIPA1 (UniProt Q96FS4),1 ± 0.02
6,Sirt1 (UniProt Q96EB6),1 ± 0.063
7,UniProt Q96G28 and related entries,1.01 ± 0.068
8,UniProt Q96ES7,0.978 ± 0.05
9,UniProt Q96P11 and related entries,1.01 ± 0.014
10,GCC1 (UniProt Q96CN9),0.974 ± 0.021
11,UniProt Q96BD5 and related entries,1.01 ± 0.092
12,PAWR (UniProt Q96IZ0),1.01 ± 0.053
13,ZC3HAV1L (UniProt Q96H79),1.02 ± 0.047
14,CUL5 (UniProt Q93034),0.983 ± 0.067
15,UniProt Q96BN8,1.01 ± 0.033
16,UniProt Q96JC1 and related entries,1.01 ± 0.042
17,UniProt Q969N2 and related entries,1.03 ± 0.018
18,COG8 (UniProt Q96MW5),0.976 ± 0.014
